# Values from PubChem BioAssay AID652259 (Drosophila RNAi Screening Center, 2013)
# Aim: 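Genome-wide hunt for genes that control Wingless pathway activity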 (primary screen)
# Cell system: Drosophila clone 8 imaginal disc epithelial cells
# Knock-down reagent: long dsRNA against Drosophila genes
# Treatment: pathway stimulated by co-transfected Wingless expression plasmid
# Measured: 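Firefly luciferase from a tcf-site Wingless reporter, measured alongside co-transfected Renilla luciferase that tracks transfection; pathway stimulated by a Wingless plasmid; the firefly-to-Renilla ratio is not deposited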
# Scale: firefly reporter light: higher = more Wg reporter light, before normalisation; Renilla control light: higher = more transfected or surviving cells
# Call rule: 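a knock-down is a candidate when at least two out of four statistical tests show it departing from its plate mean; one test alone signals a weak candidate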
# Meaning of the calls: active = candidate regulator (raises or lowers reporter); inactive = not a candidate
# The screen tested about 22,000 reagents; this is an unselected part of those with a known target gene and a result. Over the whole deposit, 233 (1.1%) are marked active. 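Light values are raw, unnormalised plate reads; the ratio scores behind the reporter calls were not deposited.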 Unmarked entries are inactive. Reagents against one gene are numbered here. A plus sign joins genes that one reagent is predicted to hit. Reagent sequences are not shown. Not stated in the record: the amount of reagent, the time to read-out, the dose of the treatment.
target gene,reagent no.,"firefly reporter light, replicate 1","firefly reporter light, replicate 2","Renilla control light, replicate 1","Renilla control light, replicate 2"
atms,1,8886,,1434,
IKKbeta,1,1728,6173,642,2089
Rlip,1,13812,,3142,
Aprt,1,5632,,2131,
spoon,1,1562,4632,725,1520
Sumo,1,17692,,3755,
alien + CG17906,1,3024,7985,983,3429
CG33459,1,13344,,6487,
CG8132,1,21536,,6470,
CG11696,1,2909,5371,710,2352
Hsp26,1,4360,,1977,
CG32832,1,20355,,9184,
GstD9,1,9152,,3520,
CG14153,1,9981,,3941,
CG14153,2,4.74e5,4.66e5,1.59e5,1.69e5
CG7432,1,19656,,3881,
Sas-4,1,11917,,2448,
CG7916,1,2738,6101,914,2496
CG13605,1,3156,4512,1152,1437
CG15347,1,23477,,12886,
Polr1A,1,9604,,3824,
insc,1,2640,6416,1107,3386
Tmf,1,28603,,8545,
c-cup,1,2858,12253,1117,3569
bmm,1,5707,,2539,
fzy,1,2656,3136,594,880
CG30083,1,21021,,17907,
lin,1,2731,10776,442,4544
CG12863,1,6896,,3475,
eIF3k,1,11768,,2341,
CSN6,1,18668,,10512,
CG14658,1,12434,,4411,
sxc,1,2770,4484,585,2108
Traf6,1,20853,,11674,
CG14879,1,17491,,4753,
CG15208,1,1610,4608,613,1920
CG14013,1,2022,8800,587,2020
apt,1,5335,,1611,
ChLD3,1,2522,7296,964,3936
CG32833,1,8154,,2501,
CG6040,1,1952,4407,672,1408
CG42750,1,2976,9302,980,2757
CG42750,2,2208,10628,1414,4556
CG42750,3,3546,8233,1445,2832
CG42750,4,8.07e5,8.28e5,4.11e5,3.61e5
ranshi,1,15356,,4045,
CG11722,1,14581,,2864,
Srlp,1,9227,,1744,
CG33775,1,17441,,12762,
psq,1,6652,,699,
Sptz,1,15112,,3419,
Sgs8,1,5820,,3824,
HDAC6,1,4002,6486,1434,3497
Etfb,1,4055,8583,1682,2868
CG31988,1,4.63e5,4.64e5,1.60e5,78597
CG13950,1,3429,5328,1336,2321
CG6583,1,3097,8208,915,2649
nompA,1,6384,,2962,
puc,1,14534,,3878,
disco,1,22624,,11761,
wde,1,14694,,3889,
CG42633,1,12213,,3776,
CG13510,1,3532,8528,819,3523
Arfip,1,6663,,2056,
superdeath,1,2537,,780,
CG15130,1,2088,5779,682,2477
CG5567,1,5425,,2134,
Peritrophin-A,1,2896,10528,1386,3895
CG9586,1,3122,6874,1234,4484
mv,1,6755,,2624,
mv,2,4853,,2224,
RYBP,1,10481,,3640,
CG2871,1,30024,,13925,
CG2871,2,4.77e5,5.46e5,2.45e5,1.92e5
NtR,1,3765,9349,714,3272
CG12307,1,2970,6641,630,3410
Dcps,1,6898,,2033,
CG3581,1,9651,,1972,
snoRNA:Me28S-C3227a + snoRNA:Me18S-A1061 + snoRNA:Me28S-C3227b + 7 more,1,26019,,17461,
CG17186,1,14122,,4486,
Hsp110,1,6673,,1610,
gfzf,1,6730,,1968,
gfzf,2,4.95e5,4.49e5,1.45e5,1.58e5
MICU1,1,8304,,3352,
Su(Tpl),1,7600,,2681,
Pisd,1,2073,6173,1168,1842
CG3594,1,14160,,5197,
CG3594,2,4.19e5,5.04e5,1.55e5,1.70e5
Tnpo,1,5584,,1367,
Rok,1,2567,5296,1268,935
regucalcin,1,3261,,1373,
regucalcin,2,15600,,7282,
sisA,1,21098,,8489,
